From publication PMC9352551
Results are given in words; binding and its absence hold for the method and conditions named. Some entries that bind do so weakly or less than the wild type. Where a sequence is shown, tags or fusion partners need not be part of it.

Molecular target: T1, his-Par-6 (Drosophila) (UniProt O97111)
T1 sequence: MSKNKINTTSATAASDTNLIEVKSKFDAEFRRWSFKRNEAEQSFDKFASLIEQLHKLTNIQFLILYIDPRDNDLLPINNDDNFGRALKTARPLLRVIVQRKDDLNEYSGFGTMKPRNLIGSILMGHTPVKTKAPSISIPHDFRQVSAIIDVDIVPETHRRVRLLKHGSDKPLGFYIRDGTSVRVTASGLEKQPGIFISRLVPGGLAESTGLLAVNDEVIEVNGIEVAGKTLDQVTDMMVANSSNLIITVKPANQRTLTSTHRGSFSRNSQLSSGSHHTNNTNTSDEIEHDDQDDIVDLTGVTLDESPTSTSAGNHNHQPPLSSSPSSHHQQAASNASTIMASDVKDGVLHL
Assay: co-purification (his-tag affinity resin, then anion exchange); his-Par-6 and untagged aPKC co-expressed in 293F cells; lysate on HisPur Ni-NTA or cobalt resin, then Source Q with a gradient of 100 to 550 mM NaCl

B1: aPKC (enzyme, UniProt A1Z9X0 1-606)
chain: MQKMPSQILNDGSSVSLNSASMNMANTPNSITVKTAYNGQIIITTINKNISYEELCYEIRNICRFPLDQPFTIKWVDEENDPCTISTKMELDEAIRLYEMNFDSQLVIHVFPNVPQAPGLSCDGEDRSIYRRGARRWRKLYRVNGHIFQAKRFNRRAFCAYCQDRIWGLGRQGFKCIQCKLLVHKKCHKLVQKHCTDQPEPLVKERAEESSDPIPVPLPPLPYEAMSGGAEACETHDHAHIVAPPPPEDPLEPGTQRQYSLNDFELIRVIGRGSYAKVLMVELRRTRRIYAMKVIKKALVTDDEDIDWVQTEKHVFETASNHPFLVGLHSCFQTPSRLFFVIEFVRGGDLMYHMQRQRRLPEEHARFYAAEISLALNFLHEKGIIYRDLKLDNVLLDHEGHIKLTDYGMCKEGIRPGDTTSTFCGTPNYIAPEILRGEDYGFSVDWWALGVLLYEMLAGRSPFDLAGASENPDQNTEDYLFQVILEKTIRIPRSLSVRAASVLKGFLNKNPADRLGCHRESAFMDIVSHPFFKNMDWELLERKQVTPPFKPRLDSDRDLANFPPEFTGEAVQLTPDDDHVIDNIDQSEFEGFEYVNPLLMSLEDCV
- binding: binds
